Experimental data from publication PMC12737465.
No constants are given. Whether binding was seen depends on the method and setting. Binding calls can cover weak binding; strength is not graded here. Sequences can lack the tags named with a protein.

B1: glutathione S-transferase (GST) fused E. coli stalk L12 C-terminal domain, 74 aa (domain or fragment)
chain: AAEEKTEFDVILKAAGANKVAVIKAVRGATGLGLKEAKDLVESAPAALKEGVSKDDAEALKKALEEAGAEVEVK

target: trichosanthin (TCS), recombinant with hexa-histidine tag (Trichosanthes kirilowii); test: pull-down; 50 ug His-tagged MAP-EQRQ or TCS mixed with 50 ug GST-stalk in 1 mL 10 mM Tris-HCl pH 7.5, 150 mM NaCl, 30 min on ice; trapped on Ni-NTA-agarose via the hexa-histidine tag, washed (20 mM imidazole), eluted with 500 mM imidazole, SDS-PAGE; both purified

| Binder | binding |
| --- | --- |
| SDDDMGFGLFD [glutathione S-transferase (GST) fused human P2-stalk C-terminal peptide, 11 aa] | binds |
| KEESEESDDDMGFGLFD [glutathione S-transferase (GST) fused human P2-stalk C-terminal peptide, 17 aa] | binds |
| B1 | no binding (tested: 50 ug of each protein in 1 mL) |
